The whole screen tested about 390,000 compounds, of which about 610 (0.16%) were called active. Inconclusive results, whose numbers are uncertain, are shown with a selection of clear calls. Calls come from the whole dose curve; as a rule, active = well fitted inhibition curve with a large enough effect; inconclusive = small, poorly fitted or top-dose-only effect, or effect the other way, or another doubt; inactive = no such curve, though single readings can be large or run the other way. Where the call is inconclusive, the potency comes from a doubtful curve fit.
Assay: Nrf2 qHTS screen for inhibitors: counterscreen for cytotoxicity
Settings: A549 ARE-Fluc cells, CellTiter-Fluor viability, 18-24 h; series mostly up to 46 µM
Procedure, shortened: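 Cytotoxicity counterscreen: CellTiter-Fluor fluorescence was measured in A549 ARE_Fluc cells after 18-24 h of compound exposure in a concentration series. The subsequent BugLite luminescent read reports ARE-luciferase activity.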
Potency is the fitted concentration of half-maximal effect.

Row | Structure (SMILES) | Potency
1 | O=C1C2=C(CCCC2)C(=O)N1CNc1ccccc1 | inconclusive: 32.6 µM [falling, partial curve, poor fit]
2 | CS(=O)(=O)c1ccccc1-c1nnc(-c2ccc(Cl)cc2)o1 | inactive
3 | N/C(=N\OC(=O)N1CCOCC1)c1ccc(Br)cc1 | active: 13 µM
4 | Cc1cccc(N2CCN(C(=O)c3ccncc3)CC2)c1C | inconclusive: 32.6 µM [falling, partial curve, poor fit]
5 | O=c1cc(C(F)(F)F)[nH]c2c(C(F)(F)F)cccc12 | inconclusive: 20.6 µM [falling, single point]
6 | O=C(/C(=C/O)N=Nc1ccc(Cl)cc1)c1ccncc1 | inconclusive: 11.6 µM [falling, partial curve]
7 | c1ccc(CN2CCC(N3CCC(N4CCCCCC4)CC3)CC2)cc1 | inconclusive: 6.51 µM [falling, partial curve]
8 | CC(C)NCc1nnc(-c2ccc(Cl)cc2)o1 | inconclusive: 4.61 µM [activator, full curve]
9 | CCN(C(=O)CN1C(=O)S/C(=C\c2ccc(Cl)cc2)C1=O)C1CCS(=O)(=O)C1 (configuration not stated) | inactive
10 | CCC(C)Oc1ccccc1C1CC(=O)NC2=C1C(=O)CCC2 (configuration not stated) | inconclusive: 18.4 µM [falling, partial curve]
11 | Cc1ccc(NC(=O)CN2C(=O)CCn3nc(-c4cccn4C)cc32)c(Cl)c1 | inactive
12 | CCc1nc(OCc2ccco2)c2sc3nc4c(cc3c2n1)COC(C)(C)C4 | inactive
13 | Cc1cc(C)c(S(=O)(=O)/N=C2\C=C(NS(=O)(=O)c3ccccc3)C(=O)c3ccccc32)c(C)c1 | inactive
14 | Cc1nnc(NC(=O)CSc2nnc3c(n2)[nH]c2ccccc23)s1 | inconclusive: 6.51 µM [activator, partial curve, poor fit]
15 | COc1ccc(Cn2c(O)c(C=Nc3ccc(C)cc3)c3ccccc3c2=O)cc1 | inconclusive: 16.4 µM [falling, partial curve]
16 | CCOC(=O)N1CCN(C(=O)Nc2sc3nc4n(c(=O)c3c2C)CCC(C)CC4)CC1 (configuration not stated) | inactive
17 | CC(C)Sc1cc(N2CCCC2)nc(-c2ccc(F)cc2)n1 | inactive
18 | CC(C)CNS(=O)(=O)c1ccc(CCC(=O)N2CCN(c3ccccc3)CC2)cc1 | inconclusive: 29.1 µM [falling, single point]
19 | O=C(CCCn1c(=O)c2ccccc2n(CC(=O)Nc2cccc(Cl)c2)c1=O)NCc1ccc2c(c1)OCO2 | inactive
20 | CCC(=O)c1c[nH]c(C(=O)NCc2ccco2)c1 | inconclusive: 18.4 µM [activator, partial curve, poor fit]
21 | COc1ccc(Cl)cc1N1C(=O)/C(=C/c2sccc2C)N=C1SCC(=O)NC1CC1 | inconclusive: 18.4 µM [falling, single point]
22 | CCOC(=O)N1CCC2(CC1)C(C#N)=C(N)Oc1c2sc2nc(C)cc(C)c12 | inconclusive: 20.6 µM [falling, single point]
23 | COc1cccc(C2=C(C(C)=O)Sc3nnc(C4CCCCC4)n3N2C(C)=O)c1 | inconclusive: 32.6 µM [falling, partial curve, poor fit]

Row | Structure (SMILES) | Potency
24 | COC(=O)C1=C(C)N(C)C(=O)NC1c1ccsc1 (configuration not stated) | inconclusive: 32.6 µM [activator, partial curve, poor fit]
25 | N#C/C(=C\c1cc([N+](=O)[O-])c(N2CCOCC2)cc1N1CCOCC1)c1nc2ccccc2[nH]1 | inconclusive: 29.1 µM [falling, single point]
26 | COc1ccc(C(=O)OCC(=O)c2ccc(CNC(C)=O)s2)cc1 | inactive
27 | COc1ccccc1-c1cc(C(F)(F)F)nc(N2CCN(c3ccc(F)cc3)CC2)n1 | inconclusive: 1.64 µM [activator, partial curve, poor fit]
28 | Cc1ccc2cc3cc(C(=O)N4CCN(c5ccccc5)CC4)oc3nc2c1 | inconclusive: 2.91 µM [activator, partial curve]
29 | CCOc1ncccc1C(=O)NCCc1ccc(S(N)(=O)=O)cc1 | inconclusive: 14.6 µM [falling, partial curve, poor fit]
30 | N#C/C(=N\Nc1ccc(Cl)cc1)C(=O)c1ccsc1 | inconclusive: 20.6 µM [falling, single point]
31 | COc1ccc(N/C=C/C(=O)c2sc(-c3ccccc3)nc2C)cc1 | inconclusive: 20.6 µM [falling, single point]
32 | CN(C)CC(C)(C)CNC(=O)C1CCN(CCCc2ccccc2)CC1 | inconclusive: 25.9 µM [falling, single point]
33 | COc1cccc2nc3c(C(=O)NCCN(C)C)cccc3cc12 | inconclusive: 23.1 µM [falling, partial curve, poor fit]
34 | CCN(CC)Cc1c(O)ccc2c(C)c(CC(=O)OC)c(=O)oc12 | inconclusive: 10.3 µM [activator, single point]
35 | CN(C)CCCNc1oc(/C=C/c2cccs2)nc1S(=O)(=O)c1ccccc1 | inconclusive: 20.6 µM [falling, partial curve, poor fit]
36 | O=C(N/N=C/c1ccccn1)c1cc([N+](=O)[O-])cc([N+](=O)[O-])c1 | inactive
37 | Cc1onc(-c2ccccc2Cl)c1C(=O)NC(=S)NCC(=O)c1ccccc1 | inconclusive: 16.4 µM [activator, partial curve, poor fit]
38 | CNc1c(C(=O)O)ccc2c1C(=O)c1ccccc1C2=O | active: 18.4 µM
39 | N#CC1=C(N)C(C#N)(C#N)C2(CCC3(CC2)OCCO3)C2CC3(CC=C12)OCCO3 (configuration not stated) | inconclusive: 32.6 µM [falling, partial curve, poor fit]
40 | Nc1[nH]c2cc([N+](=O)[O-])ccc2c1-c1ccccn1 | active: 13 µM
41 | COC(=O)c1c(NC(=O)CC2NCCNC2=O)sc2c1CCCC2 (configuration not stated) | inconclusive: 29.1 µM [falling, single point]
42 | Nc1ccc2c(c1)CC(=O)c1ccccc1S2 | inactive
43 | OC(CCCC(O)c1ccccc1)c1ccccc1 (configuration not stated) | inactive
44 | Cc1cc(=O)n2nc(N3CCC(C(=O)NCCCOC(C)C)CC3)sc2n1 | inactive
45 | COc1ccc(NC(=O)CN(C)C(=O)c2ccc(N3CCCCC3)c([N+](=O)[O-])c2)cc1 | inconclusive: 20.6 µM [falling, partial curve, poor fit]
46 | CC(Oc1cc2oc(=O)c3c(c2cc1Cl)CCC3)C(=O)NCCCN1CCCC1=O (configuration not stated) | inconclusive: 32.6 µM [falling, partial curve, poor fit]

Row | Structure (SMILES) | Potency
47 | COc1ccc(CCNS(=O)(=O)c2ccccc2[N+](=O)[O-])cc1OC | inconclusive: 32.6 µM [falling, partial curve, poor fit]
48 | COc1ccccc1N1CCN(S(=O)(=O)c2ccc3c(c2)CCCN3C(C)=O)CC1 | inactive
49 | N#Cc1c(N)n(-c2ccc(C(=O)O)cc2)c2nc3ccccc3nc12 | inconclusive: 18.4 µM [activator, single point]
50 | CC(C)(C)c1csc(NC(=O)c2ccc(Cl)s2)n1 | inconclusive: 29.1 µM [falling, single point]
51 | CCc1ccccc1-n1c(SCC(=O)Nc2ccc(C)cc2)nc2n[nH]c(C)c2c1=N | inactive
52 | CCc1cccc(C)c1NC(=O)CSc1nnc(-c2cc3cc(Br)ccc3o2)n1CC | inconclusive: 29.1 µM [falling, single point]
53 | CCc1nnc(NC(=O)CSc2nnc(-c3ccccc3OC)n2-c2ccc(C)cc2)s1 | inconclusive: 1.84 µM [falling, partial curve, poor fit]
54 | Cc1ccc(N2C(=O)C(Cl)=C(N3CCCCCC3)C2=O)c(C)c1 | inconclusive: 23.1 µM [falling, partial curve, poor fit]
55 | Nc1nc2nc(-c3cccs3)cc(C(F)(F)F)n2n1 | inconclusive: 18.4 µM [activator, single point]
56 | Cc1ccc(NC(=O)C2CCN(S(=O)(=O)c3ccc4c(c3)CCCC(=O)N4)CC2)c(Br)c1 | inactive
57 | COc1ccc(-c2csc(N(CC3CCCO3)C(=O)c3ccccc3)n2)cc1 (configuration not stated) | inconclusive: 29.1 µM [activator, partial curve, poor fit]
58 | CCc1ccccc1NC(=O)Cn1cccc1C1=NC(c2ccccc2)CO1 (configuration not stated) | inactive
59 | CN(Cc1cnn(Cc2ccccc2)c1)C(=O)CN=C1NS(=O)(=O)c2ccccc21 | inconclusive: 23.1 µM [activator, partial curve, poor fit]
60 | CC(CNC(=O)c1ccc(CSc2nc3ccncc3n2Cc2cccc(F)c2)cc1)c1ccccc1 (configuration not stated) | inconclusive: 29.1 µM [falling, single point]
61 | CC(Nc1cccc([N+](=O)[O-])c1)C(=O)Nc1ccc(S(=O)(=O)N2CCCC2)cc1 (configuration not stated) | inconclusive: 25.9 µM [falling, partial curve, poor fit]
62 | Cc1ccc(-c2cc(C(F)(F)F)n3nc(C(=O)Nc4sc5c(c4C#N)CCC(C)C5)cc3n2)cc1 (configuration not stated) | inactive
63 | Nn1cnnc1SCC(=O)Nc1ccc(C2CCCCC2)cc1 | inactive
64 | CCCCCNC(=O)c1ccc2c(=O)[nH]c3c(C(=O)NCC4CCCO4)sc(=S)n3c2c1 (configuration not stated) | inconclusive: 32.6 µM [falling, partial curve, poor fit]
65 | Cc1cccn2c(=O)c3cc(C#N)c(=NC(=O)c4ccncc4)n(CCCOC(C)C)c3nc12 | inconclusive: 29.1 µM [activator, single point]
66 | CCOC(=O)c1c(NC(=O)CSc2cn(CCNC(=O)c3ccccc3OC)c3ccccc23)sc2c1CCCC2 | inactive
67 | Cc1nn(CC(=O)N2CCN(c3ccccc3)CC2)c(=O)c2cc3cc(F)ccc3n12 | inactive
